From the supplement of paper PMC10849652
Some of the results follow. Residues, ends and D or L forms follow the SMILES beside them. *: point of attachment. Cbz = O=C(OCc1ccccc1)*

Chains of the proteins cited; added tags and fusions are not shown. Lines headed by an entry give the natural chain unless they say otherwise; changes in a name come on top.
UniProt P27540, whole entry, looked up: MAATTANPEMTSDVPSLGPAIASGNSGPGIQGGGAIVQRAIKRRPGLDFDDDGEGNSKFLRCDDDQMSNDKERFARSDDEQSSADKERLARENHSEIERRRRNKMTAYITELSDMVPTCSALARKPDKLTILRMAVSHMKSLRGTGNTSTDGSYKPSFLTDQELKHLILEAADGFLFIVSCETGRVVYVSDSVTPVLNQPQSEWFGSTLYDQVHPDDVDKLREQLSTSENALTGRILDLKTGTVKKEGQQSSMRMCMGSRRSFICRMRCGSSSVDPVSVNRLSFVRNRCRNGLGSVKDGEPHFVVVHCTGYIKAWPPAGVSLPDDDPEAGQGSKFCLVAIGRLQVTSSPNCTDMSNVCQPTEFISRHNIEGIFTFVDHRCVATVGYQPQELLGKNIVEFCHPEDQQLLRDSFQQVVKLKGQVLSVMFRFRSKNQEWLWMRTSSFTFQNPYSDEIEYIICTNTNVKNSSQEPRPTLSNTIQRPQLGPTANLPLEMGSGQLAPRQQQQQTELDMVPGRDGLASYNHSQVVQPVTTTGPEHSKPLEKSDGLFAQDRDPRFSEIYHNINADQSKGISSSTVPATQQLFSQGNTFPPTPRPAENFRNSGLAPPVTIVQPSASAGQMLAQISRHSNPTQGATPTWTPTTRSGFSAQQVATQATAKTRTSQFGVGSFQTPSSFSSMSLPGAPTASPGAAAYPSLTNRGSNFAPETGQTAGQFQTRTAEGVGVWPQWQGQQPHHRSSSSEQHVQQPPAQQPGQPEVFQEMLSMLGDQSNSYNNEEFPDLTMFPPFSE
UniProt P56378: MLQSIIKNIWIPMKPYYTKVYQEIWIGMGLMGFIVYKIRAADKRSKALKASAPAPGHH
UniProt Q04656: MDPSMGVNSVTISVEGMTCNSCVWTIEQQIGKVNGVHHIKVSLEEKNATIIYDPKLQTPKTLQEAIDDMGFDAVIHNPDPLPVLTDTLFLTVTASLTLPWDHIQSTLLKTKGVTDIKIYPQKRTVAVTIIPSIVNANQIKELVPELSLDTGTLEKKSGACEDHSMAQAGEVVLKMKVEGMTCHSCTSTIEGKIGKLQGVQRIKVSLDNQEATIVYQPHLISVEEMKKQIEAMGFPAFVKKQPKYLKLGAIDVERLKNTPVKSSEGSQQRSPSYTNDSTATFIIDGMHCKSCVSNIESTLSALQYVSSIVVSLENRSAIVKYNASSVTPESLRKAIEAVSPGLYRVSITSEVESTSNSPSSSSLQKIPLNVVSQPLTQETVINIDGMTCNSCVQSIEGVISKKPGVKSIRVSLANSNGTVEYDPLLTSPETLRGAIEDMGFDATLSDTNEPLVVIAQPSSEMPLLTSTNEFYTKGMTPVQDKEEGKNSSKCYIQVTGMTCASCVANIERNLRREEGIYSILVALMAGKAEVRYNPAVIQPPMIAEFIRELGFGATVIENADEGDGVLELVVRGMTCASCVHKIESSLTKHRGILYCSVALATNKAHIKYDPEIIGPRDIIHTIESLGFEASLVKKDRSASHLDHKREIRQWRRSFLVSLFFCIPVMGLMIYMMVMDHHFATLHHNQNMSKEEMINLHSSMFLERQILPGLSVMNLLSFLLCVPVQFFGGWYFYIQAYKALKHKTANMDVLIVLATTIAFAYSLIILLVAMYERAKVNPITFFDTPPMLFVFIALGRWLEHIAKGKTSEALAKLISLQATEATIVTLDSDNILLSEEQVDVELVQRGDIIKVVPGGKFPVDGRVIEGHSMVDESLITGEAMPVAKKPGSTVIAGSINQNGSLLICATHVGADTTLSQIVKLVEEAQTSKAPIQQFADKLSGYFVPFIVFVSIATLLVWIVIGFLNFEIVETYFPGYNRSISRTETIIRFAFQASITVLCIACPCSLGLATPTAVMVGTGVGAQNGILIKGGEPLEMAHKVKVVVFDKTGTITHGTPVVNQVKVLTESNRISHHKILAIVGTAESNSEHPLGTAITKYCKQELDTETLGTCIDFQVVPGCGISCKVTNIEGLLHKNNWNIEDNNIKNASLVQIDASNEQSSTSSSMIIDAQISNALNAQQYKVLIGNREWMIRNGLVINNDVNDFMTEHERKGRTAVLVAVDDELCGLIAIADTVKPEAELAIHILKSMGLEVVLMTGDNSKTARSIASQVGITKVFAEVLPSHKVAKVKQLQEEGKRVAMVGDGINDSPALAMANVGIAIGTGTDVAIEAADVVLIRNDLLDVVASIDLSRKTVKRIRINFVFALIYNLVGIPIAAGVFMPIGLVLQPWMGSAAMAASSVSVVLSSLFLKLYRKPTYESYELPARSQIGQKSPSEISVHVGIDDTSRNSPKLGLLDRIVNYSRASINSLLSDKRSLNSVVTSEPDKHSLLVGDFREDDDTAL
UniProt P54259: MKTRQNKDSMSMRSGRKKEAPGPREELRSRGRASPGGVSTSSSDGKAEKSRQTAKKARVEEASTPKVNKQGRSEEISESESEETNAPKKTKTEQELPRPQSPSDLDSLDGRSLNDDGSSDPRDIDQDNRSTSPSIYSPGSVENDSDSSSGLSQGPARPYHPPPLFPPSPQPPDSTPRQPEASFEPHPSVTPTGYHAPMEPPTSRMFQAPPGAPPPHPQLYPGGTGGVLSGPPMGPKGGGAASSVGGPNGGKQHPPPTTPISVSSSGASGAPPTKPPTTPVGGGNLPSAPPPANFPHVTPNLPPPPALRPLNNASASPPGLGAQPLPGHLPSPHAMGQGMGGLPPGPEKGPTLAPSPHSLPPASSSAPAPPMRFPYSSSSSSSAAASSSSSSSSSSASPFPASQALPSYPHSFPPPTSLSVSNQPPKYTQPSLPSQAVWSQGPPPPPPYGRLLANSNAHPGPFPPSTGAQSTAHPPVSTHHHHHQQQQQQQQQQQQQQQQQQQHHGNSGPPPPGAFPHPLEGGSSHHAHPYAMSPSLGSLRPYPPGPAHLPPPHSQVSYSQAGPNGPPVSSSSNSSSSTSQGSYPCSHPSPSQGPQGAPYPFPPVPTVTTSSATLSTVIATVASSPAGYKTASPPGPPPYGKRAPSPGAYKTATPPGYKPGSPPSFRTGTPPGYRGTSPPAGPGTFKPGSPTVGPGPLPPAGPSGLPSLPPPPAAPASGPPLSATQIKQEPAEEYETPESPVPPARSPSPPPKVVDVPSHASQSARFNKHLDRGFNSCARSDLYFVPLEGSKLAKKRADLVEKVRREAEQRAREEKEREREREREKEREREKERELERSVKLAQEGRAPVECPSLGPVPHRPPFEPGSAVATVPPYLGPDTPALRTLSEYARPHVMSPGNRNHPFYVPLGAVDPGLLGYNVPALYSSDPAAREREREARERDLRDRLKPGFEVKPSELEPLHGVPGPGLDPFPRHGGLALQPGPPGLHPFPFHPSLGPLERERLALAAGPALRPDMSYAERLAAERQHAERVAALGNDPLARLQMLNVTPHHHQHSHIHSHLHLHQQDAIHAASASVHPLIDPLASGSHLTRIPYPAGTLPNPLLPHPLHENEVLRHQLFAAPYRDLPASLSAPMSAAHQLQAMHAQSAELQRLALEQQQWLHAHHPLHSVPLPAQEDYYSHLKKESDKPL
UniProt Q13510, whole entry, looked up: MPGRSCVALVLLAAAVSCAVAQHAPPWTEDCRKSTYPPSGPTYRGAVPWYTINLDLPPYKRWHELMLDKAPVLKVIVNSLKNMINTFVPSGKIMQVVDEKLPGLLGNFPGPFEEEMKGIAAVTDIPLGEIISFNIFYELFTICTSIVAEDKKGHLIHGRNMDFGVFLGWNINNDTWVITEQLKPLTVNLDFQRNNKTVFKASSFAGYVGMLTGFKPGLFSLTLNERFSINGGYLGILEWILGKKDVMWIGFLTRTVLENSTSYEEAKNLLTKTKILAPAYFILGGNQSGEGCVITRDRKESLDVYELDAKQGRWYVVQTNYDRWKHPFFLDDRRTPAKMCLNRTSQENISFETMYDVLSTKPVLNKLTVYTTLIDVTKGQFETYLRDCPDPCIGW
UniProt Q9H2C2: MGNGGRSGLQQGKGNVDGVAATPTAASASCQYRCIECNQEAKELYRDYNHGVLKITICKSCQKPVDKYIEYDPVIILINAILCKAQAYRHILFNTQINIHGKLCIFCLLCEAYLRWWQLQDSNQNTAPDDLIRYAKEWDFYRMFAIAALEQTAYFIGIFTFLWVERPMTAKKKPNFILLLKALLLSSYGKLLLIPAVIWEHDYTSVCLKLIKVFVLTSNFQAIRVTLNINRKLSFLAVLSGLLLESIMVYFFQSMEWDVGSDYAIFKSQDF
UniProt Q8N9N2: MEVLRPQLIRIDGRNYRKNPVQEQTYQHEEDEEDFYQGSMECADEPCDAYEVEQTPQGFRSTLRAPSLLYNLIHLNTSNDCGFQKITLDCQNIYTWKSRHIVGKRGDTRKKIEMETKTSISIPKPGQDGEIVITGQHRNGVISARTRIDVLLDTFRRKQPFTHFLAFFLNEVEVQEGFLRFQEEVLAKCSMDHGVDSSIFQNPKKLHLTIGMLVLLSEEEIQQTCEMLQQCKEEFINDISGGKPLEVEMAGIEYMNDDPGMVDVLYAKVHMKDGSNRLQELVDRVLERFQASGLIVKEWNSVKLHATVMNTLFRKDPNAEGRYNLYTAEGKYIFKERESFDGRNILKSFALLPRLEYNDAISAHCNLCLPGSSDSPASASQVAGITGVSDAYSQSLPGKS
UniProt Q6NXE6: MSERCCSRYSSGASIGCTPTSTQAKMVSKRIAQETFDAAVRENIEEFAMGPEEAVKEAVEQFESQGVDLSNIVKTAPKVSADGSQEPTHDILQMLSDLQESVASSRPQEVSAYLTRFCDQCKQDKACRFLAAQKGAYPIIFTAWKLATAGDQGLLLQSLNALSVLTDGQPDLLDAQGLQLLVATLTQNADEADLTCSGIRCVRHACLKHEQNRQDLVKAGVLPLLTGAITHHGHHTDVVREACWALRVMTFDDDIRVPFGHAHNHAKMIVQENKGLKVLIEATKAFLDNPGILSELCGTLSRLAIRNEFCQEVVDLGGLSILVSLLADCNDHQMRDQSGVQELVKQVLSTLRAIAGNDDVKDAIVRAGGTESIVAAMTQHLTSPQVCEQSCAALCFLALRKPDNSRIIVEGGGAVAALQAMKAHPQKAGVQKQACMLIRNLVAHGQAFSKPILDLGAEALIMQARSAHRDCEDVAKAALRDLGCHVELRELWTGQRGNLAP
UniProt Q8NB49: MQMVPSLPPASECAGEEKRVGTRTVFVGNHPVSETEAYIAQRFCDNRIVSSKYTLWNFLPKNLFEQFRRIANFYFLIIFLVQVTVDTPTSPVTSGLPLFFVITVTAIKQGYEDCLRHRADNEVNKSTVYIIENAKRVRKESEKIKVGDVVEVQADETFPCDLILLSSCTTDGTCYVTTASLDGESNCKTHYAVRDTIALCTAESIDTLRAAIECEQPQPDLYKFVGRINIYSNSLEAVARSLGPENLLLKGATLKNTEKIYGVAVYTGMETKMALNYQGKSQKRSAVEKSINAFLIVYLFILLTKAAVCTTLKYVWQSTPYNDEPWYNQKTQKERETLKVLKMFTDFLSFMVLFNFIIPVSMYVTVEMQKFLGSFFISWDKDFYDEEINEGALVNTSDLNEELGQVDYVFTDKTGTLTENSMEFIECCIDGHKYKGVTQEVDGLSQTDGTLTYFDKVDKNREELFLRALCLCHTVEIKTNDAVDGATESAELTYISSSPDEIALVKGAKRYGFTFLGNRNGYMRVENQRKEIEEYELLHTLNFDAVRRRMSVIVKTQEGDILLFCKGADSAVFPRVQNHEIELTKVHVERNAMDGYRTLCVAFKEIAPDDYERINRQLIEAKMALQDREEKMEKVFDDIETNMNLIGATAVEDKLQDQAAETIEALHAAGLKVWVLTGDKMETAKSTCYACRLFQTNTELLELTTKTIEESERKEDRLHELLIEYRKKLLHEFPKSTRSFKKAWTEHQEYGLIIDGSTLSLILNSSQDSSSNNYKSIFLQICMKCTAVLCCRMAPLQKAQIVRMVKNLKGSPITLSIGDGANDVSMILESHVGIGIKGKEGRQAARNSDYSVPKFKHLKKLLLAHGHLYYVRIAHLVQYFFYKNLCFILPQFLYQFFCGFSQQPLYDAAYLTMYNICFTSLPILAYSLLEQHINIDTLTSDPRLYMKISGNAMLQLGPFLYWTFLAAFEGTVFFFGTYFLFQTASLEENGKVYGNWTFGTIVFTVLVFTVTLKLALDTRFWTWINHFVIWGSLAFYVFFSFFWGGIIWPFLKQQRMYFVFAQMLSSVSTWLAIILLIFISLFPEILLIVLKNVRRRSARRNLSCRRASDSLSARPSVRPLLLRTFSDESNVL
UniProt P24539: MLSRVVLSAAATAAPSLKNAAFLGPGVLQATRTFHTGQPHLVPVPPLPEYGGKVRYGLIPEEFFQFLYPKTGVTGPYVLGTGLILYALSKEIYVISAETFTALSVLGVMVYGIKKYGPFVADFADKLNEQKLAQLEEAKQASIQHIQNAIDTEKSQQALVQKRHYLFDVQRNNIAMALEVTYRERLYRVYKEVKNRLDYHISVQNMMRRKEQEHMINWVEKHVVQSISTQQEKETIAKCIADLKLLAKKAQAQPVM

Assays:
Test in all cases: log2 fold change, soluble protein after heating vs DMSO (PISA); higher = thermal stabilisation; K562 cells, 10 uM, 30 min; active = over 0.2 and 3.5 SD of the protein, either way, in both replicates (recomputed)
erlotinib = compound: C#Cc1cccc(Nc2ncnc3cc(OCCOC)c(OCCOC)cc23)c1 [erlotinib]
Outline: (§1)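 Quantification of soluble protein used TMTpro 16plex LC-MS/MS, with channel sums equalised. Samples were the supernatant after 21,000xg for 90 min of pooled aliquots from K562 cells (2×10^6 cells/mL) treated with 10 μM compound for 30 min, heated for 3 min over 48°C-58°C, and extracted in PBS with 0.5% NP-40 at 4°C. Values, from duplicates, describe thermal stability against control samples on a log2 fold-change scale.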

[1] = compound: C/C(=N\NC(=O)C1=CC(=CC=C1)S(=O)(=O)N2CCOCC2)/C3=C(C=CC(=C3)Cl)O
Outline: as §1

[2] = compound: C1=CC(=C(C=C1Cl)C2=NC3=NC=CN=C3C(=N2)NC4=CC=NC=C4)F
Outline: as §1

[3] = compound: C1=CC(=CC=C1C2=NC3=C(N2)C=C(C=C3)C(=O)N)OC4=CC=C(C=C4)Cl
Outline: as §1

[4] = compound: C1=CC2=C(C=CC(=C2)/C=C\3/C(=O)NC(=NCC4=CC=CS4)S3)N=C1
Outline: as §1

[5] = compound: C1=CC2=NC=CN=C2C=C1/C=C/3\C(=O)NC(=O)S3
Outline: as §1

[6] = compound: C1=CC=C(C=C1)C2=NC(=C(N2)C3=CC=NC=C3)C4=CC(=C(C=C4)Cl)O
Outline: as §1

[7] = compound: C1=CC=C2C(=C1)C3=NNC4=CC=CC(=C43)C2=O
Outline: as §1

[8] = compound: C1CCN(C1)C(=O)NC2=CC=CC(=C2)NC3=NC=C(C(=N3)NCCC4=CN=CN4)Br
Outline: as §1

[9] = compound: C1CN(CCC1(CC2=CC=C(C=C2)Cl)N)C3=NC=NC4=C3C=CN4
Outline: as §1

IRAK-1-4 Inhibitor I = compound: C1COCCN1CCN2C3=CC=CC=C3N=C2NC(=O)C4=CC(=CC=C4)[N+](=O)[O-] [IRAK-1-4 Inhibitor I]
Outline: as §1

ibrutinib = compound: C=CC(=O)N1CCC[C@@H](n2nc(-c3ccc(Oc4ccccc4)cc3)c3c(N)ncnc32)C1 [ibrutinib]
Outline: as §1

[10] = compound: CC(=O)c1cnc2ccc(-c3cc(Cl)c(O)c(Cl)c3)nc2c1N[C@H]1CC[C@H](CN(C)C)CC1
Outline: as §1

ralimetinib = compound: CC(C)(C)Cn1c(N)nc2ccc(-c3[nH]c(C(C)(C)C)nc3-c3ccc(F)cc3)nc21 [ralimetinib]
Outline: as §1

[11] = compound: CC(C)(O)CC(=O)NCCn1ccc2ncnc(Nc3ccc(Oc4cccc(C(F)(F)F)c4)c(Cl)c3)c21
Outline: as §1

[12] = compound: CC(C)C1=C2N=C(C=C(N2N=C1)NCC3=CC=CC=C3)NCCCCCCN
Outline: as §1

[13] = compound: CC(C)C[C@@H](C=O)NC(=O)[C@H](CC(C)C)NC(=O)[C@H](CC(C)C)NC(=O)OCc1ccccc1
Outline: as §1

pinometostat = compound: CC(C)N(C[C@H]1O[C@@H](n2cnc3c(N)ncnc32)[C@H](O)[C@@H]1O)[C@H]1C[C@@H](CCc2nc3cc(C(C)(C)C)ccc3[nH]2)C1 [pinometostat]
Outline: as §1

[14] = compound: CC1=C(C(CC(=O)N1)C2=CC=C(C=C2)C(F)(F)F)C(=O)NC3=C(C=C4C(=C3)C=NN4)F
Outline: as §1

[15] = compound: CC1=C(C2=C(C=C1)C(=O)C3=CC=CC=C3N2CCCN)C
Outline: as §1

Measured: log2 fold change

ASNA1 (UniProt O43681)
inactive: erlotinib -0.05 | [1] 0.022 | [2] 0.039 | [3] -0.01 | [4] -0.006 | [5] 0.049 | [6] -0.01 | [7] 0.003 | [8] 0.01 | [9] -0.007 | IRAK-1-4 Inhibitor I -0.037 | ibrutinib 0.015 | [10] 0.055 | ralimetinib -0.043 | [11] -0.041 | [12] 0.01 | [13] -0.038 | pinometostat -0.05 | [14] -0.022 | [15] -0.008

ARNT (UniProt P27540)
inactive: erlotinib 0.065 | [1] -0.089 | [2] -0.131 | [3] -0.012 | [4] 0.009 | [5] -0.048 | [6] -0.048 | [7] -0.019 | [8] -0.01 | [9] -0.064 | IRAK-1-4 Inhibitor I 0.046 | ibrutinib -0.039 | [10] 0.066 | ralimetinib 0.067 | [11] -0.024 | [12] -0.032 | [13] 0.036 | pinometostat 0.112 | [14] 0.051 | [15] 0.093

ATP5MPL (UniProt P56378)
inactive: erlotinib -0.027 | [1] 0 | [2] 0.232 | [3] 0.025 | [4] 0.007 | [5] 0.032 | [6] 0.052 | [7] 0.063 | [8] 0.013 | [9] 0.036 | IRAK-1-4 Inhibitor I 0.08 | ibrutinib -0.02 | [10] -0.018 | ralimetinib -0.023 | [11] -0.006 | [12] 0.125 | [13] -0.05 | pinometostat 0.118 | [14] -0.006 | [15] 0.046

ATP7A isoform 3 (UniProt Q04656)
inactive: erlotinib 0.052 | [1] -0.022 | [2] -0.03 | [3] 0.037 | [4] 0.019 | [5] 0.026 | [6] 0.016 | [7] -0.021 | [8] 0.004 | [9] -0.004 | IRAK-1-4 Inhibitor I 0.007 | ibrutinib -0.013 | [10] -0.008 | ralimetinib 0.005 | [11] -0.013 | [12] 0.113 | [13] -0.012 | pinometostat -0.009 | [14] -0.014 | [15] -0.007

ATP6V1D (UniProt Q9Y5K8)
inactive: erlotinib -0.019 | [1] -0.016 | [2] -0.002 | [3] 0.018 | [4] 0.04 | [5] 0.043 | [6] -0.05 | [7] -0.002 | [8] 0.017 | [9] 0.003 | IRAK-1-4 Inhibitor I 0.007 | ibrutinib -0.009 | [10] -0.018 | ralimetinib 0.013 | [11] 0.056 | [12] -0.138 | [13] 0.036 | pinometostat -0.038 | [14] 0.007 | [15] 0.005

ATPAF1 (UniProt Q5TC12)
inactive: erlotinib -0.008 | [1] 0.06 | [2] 0.081 | [3] 0.033 | [4] -0.022 | [5] 0.005 | [6] -0.037 | [7] -0.044 | [8] -0.06 | [9] 0.053 | IRAK-1-4 Inhibitor I 0.032 | ibrutinib 0.026 | [10] 0.053 | ralimetinib -0.054 | [11] -0.025 | [12] -0.057 | [13] 0.062 | pinometostat 0.023 | [14] 0.002 | [15] -0.019

ATN1 (UniProt P54259)
inactive: erlotinib 0.05 | [1] -0.07 | [2] 0 | [3] -0.007 | [4] 0.018 | [5] 0.079 | [6] -0.101 | [7] -0.055 | [8] -0.147 | [9] 0.016 | IRAK-1-4 Inhibitor I 0.049 | ibrutinib -0.023 | [10] 0.157 | ralimetinib -0.079 | [11] 0.068 | [12] 0.032 | [13] 0.046 | pinometostat -0.154 | [14] 0.046 | [15] -0.118

ATG16L1 (UniProt Q676U5)
inactive: erlotinib 0.017 | [1] 0.107 | [2] 0.014 | [3] -0.014 | [4] 0.021 | [5] 0.06 | [6] 0.002 | [7] -0.007 | [8] -0.027 | [9] 0.016 | IRAK-1-4 Inhibitor I 0.025 | ibrutinib -0.024 | [10] -0.061 | ralimetinib -0.04 | [11] -0.053 | [12] -0.054 | [13] 0.006 | pinometostat -0.036 | [14] -0.007 | [15] 0.046

ARPC3 (UniProt O15145)
inactive: erlotinib -0.039 | [1] 0.048 | [2] 0.014 | [3] -0.027 | [4] -0.02 | [5] -0.032 | [6] 0.044 | [7] 0.001 | [8] -0.052 | [9] -0.035 | IRAK-1-4 Inhibitor I 0.032 | ibrutinib 0.024 | [10] -0.002 | ralimetinib -0.027 | [11] -0.009 | [12] 0.078 | [13] 0.049 | pinometostat -0.048 | [14] -0.061 | [15] 0.049

ASAH1 isoform 2 (UniProt Q13510)
inactive: erlotinib -0.105 | [1] -0.009 | [2] 0.116 | [3] 0.056 | [4] -0.019 | [5] 0 | [6] 0.005 | [7] -0.037 | [8] -0.016 | [9] 0.028 | IRAK-1-4 Inhibitor I 0.055 | ibrutinib 0.05 | [10] -0.029 | ralimetinib -0.069 | [11] 0.011 | [12] 0.134 | [13] -0.023 | pinometostat 0.003 | [14] 0.007 | [15] 0.003

ARV1 (UniProt Q9H2C2)
inactive: erlotinib -0.038 | [1] 0.072 | [2] 0.069 | [3] 0.021 | [4] 0.042 | [5] 0 | [6] 0.015 | [7] -0.032 | [8] 0.028 | [9] 0.057 | IRAK-1-4 Inhibitor I 0.011 | ibrutinib 0.013 | [10] -0.038 | ralimetinib -0.111 | [11] 0.004 | [12] 0.022 | [13] 0.005 | pinometostat -0.018 | [14] -0.038 | [15] -0.033

ASCC1 isoform 2 (UniProt Q8N9N2)
inactive: erlotinib 0.024 | [1] 0.028 | [2] -0.077 | [3] -0.016 | [4] 0.023 | [5] 0.046 | [6] 0.004 | [7] -0.012 | [8] 0.038 | [9] 0.065 | IRAK-1-4 Inhibitor I -0.015 | ibrutinib -0.037 | [10] -0.045 | ralimetinib 0.058 | [11] -0.064 | [12] -0.125 | [13] 0.068 | pinometostat 0.065 | [14] -0.007 | [15] -0.028

Quoted from the results shown (2 entries):
ARPC3 (UniProt O15145)
inactive: erlotinib -0.039 | [1] 0.048 | [2] 0.014 | [3] -0.027 | [4] -0.02 | [5] -0.032 | [6] 0.044 | [7] 0.001 | [8] -0.052 | [9] -0.035 | IRAK-1-4 Inhibitor I 0.032 | ibrutinib 0.024 | [10] -0.002 | ralimetinib -0.027 | [11] -0.009 | [12] 0.078 | [13] 0.049 | pinometostat -0.048 | [14] -0.061 | [15] 0.049

ASAH1 isoform 2 (UniProt Q13510)
inactive: erlotinib -0.105 | [1] -0.009 | [2] 0.116 | [3] 0.056 | [4] -0.019 | [5] 0 | [6] 0.005 | [7] -0.037 | [8] -0.016 | [9] 0.028 | IRAK-1-4 Inhibitor I 0.055 | ibrutinib 0.05 | [10] -0.029 | ralimetinib -0.069 | [11] 0.011 | [12] 0.134 | [13] -0.023 | pinometostat 0.003 | [14] 0.007 | [15] 0.003

Remaining list, next part.

ARMC6 (UniProt Q6NXE6)
inactive: erlotinib 0.073 | [1] -0.044 | [2] -0.359 | [3] 0.022 | [4] 0 | [5] 0.005 | [6] -0.028 | [7] 0.018 | [8] -0.016 | [9] -0.201 | IRAK-1-4 Inhibitor I -0.185 | ibrutinib -0.018 | [10] 0.17 | ralimetinib 0.28 | [11] -0.002 | [12] -0.241 | [13] 0.266 | pinometostat 0.417 | [14] 0.356 | [15] -0.023

ATP11C (UniProt Q8NB49)
inactive: erlotinib 0.024 | [1] -0.017 | [2] 0.028 | [3] 0.029 | [4] 0.051 | [5] 0.009 | [6] 0.066 | [7] -0.051 | [8] -0.046 | [9] 0.123 | IRAK-1-4 Inhibitor I 0.023 | ibrutinib 0.07 | [10] -0.034 | ralimetinib -0.015 | [11] -0.038 | [12] -0.028 | [13] 0.005 | pinometostat 0.013 | [14] -0.01 | [15] 0.041

ATP5F1C (UniProt P36542)
inactive: erlotinib -0.006 | [1] -0.009 | [2] 0.013 | [3] -0.036 | [4] 0.036 | [5] 0.021 | [6] -0.041 | [7] 0.004 | [8] 0.014 | [9] 0.034 | IRAK-1-4 Inhibitor I 0.008 | ibrutinib -0.005 | [10] 0.015 | ralimetinib -0.068 | [11] 0.031 | [12] 0.032 | [13] -0.055 | pinometostat -0.01 | [14] 0.025 | [15] 0.015

ATP5PB (UniProt P24539)
inactive: erlotinib -0.039 | [1] -0.007 | [2] 0.069 | [3] 0 | [4] -0.02 | [5] 0.026 | [6] 0.011 | [7] 0.028 | [8] 0.015 | [9] 0.026 | IRAK-1-4 Inhibitor I 0.014 | ibrutinib 0 | [10] 0.04 | ralimetinib -0.037 | [11] -0.034 | [12] 0.006 | [13] -0.066 | pinometostat -0.059 | [14] 0.019 | [15] 0.025
